Data taken from patent US20170189504A1, “NOVEL PEPTIDES AND COMBINATION OF PEPTIDES FOR USE IN IMMUNOTHERAPY AGAINST VARIOUS CANCERS” (immatics biotechnologies GmbH, priority 2015, published 2017).
For some assays here: For expression read-outs the peptide stands for its source gene, whose mRNA was measured; the gene is not named for every peptide.

Columns and labels:
HLA-A*02 = experiment: Identification and relative LC-MS quantitation of HLA-A*02-presented tumor-associated peptides on tissue samples (presentation profiles, Tables 13A, 13B, 15, FIG. 1); design: species or system human; key to Presentation score NHL / Presentation score CLL / Presentation score BRCA / Presentation score AML / Presentation score GB / Presentation score NSCLC / Presentation score GBC_CCC / Presentation score UEC / Presentation score MEL / Presentation score OSCAR / Presentation score GC / Presentation score UBC / Presentation score OC / Presentation score RCC / Presentation score CRC / Presentation score PCA / Presentation score HCC / Presentation score PC / Presentation score SCLC: specifically presented on tumors (++++); very highly over-presented on tumors compared to a panel of normal tissues (+++); highly over-presented on tumors compared to a panel of normal tissues (++); over-presented on tumors compared to a panel of normal tissues (+); details: for Presentation score GB: glioblastoma (N = 41) vs panel of normal tissues (N = 262); for Presentation score NSCLC: non-small cell lung cancer (N = 90) vs panel of normal tissues (N = 262); for Peptide Presentation on cancer entities: Table 13A, HLA-A*02-binding tumor-associated peptides, cancer entities on which the peptide was found presented
source genes (mRNA) [1] = experiment: Gene and exon expression of source genes, TCGA tumor samples compared with normal tissue samples (Lonsdale, 2013) (Table 17); design: species or system human; details: for Target coverage: over-expression category of source gene, ESCA: Esophageal cancer (N = 185); for Target coverage: over-expression category of source gene, GBM: Glioblastoma multiforme (N = 169); for Target coverage: over-expression category of source gene, LGG: Lower grade glioma (N = 534); for Target coverage: over-expression category of source gene, LUAD: Lung adenocarcinoma (N = 517); for Target coverage: over-expression category of source gene, LUSC: Lung squamous cell carcinoma (N = 503); for Target coverage: over-expression category of source gene, SKCM: Skin cutaneous melanoma (N = 473); for Target coverage: over-expression category of source gene, BLCA: Bladder urothelial carcinoma (N = 408); for Target coverage: over-expression category of source gene, READ: Colon and rectal adenocarcinoma (N = 167); for Target coverage: over-expression category of source gene, COAD: Colon and rectal adenocarcinoma (N = 462); for Target coverage: over-expression category of source gene, STAD: Stomach adenocarcinoma (N = 415); for Target coverage: over-expression category of source gene, UCEC: Uterine corpus endometrial carcinoma (N = 546)
source genes (mRNA) [2] = experiment: Expression profiling of source genes by in-house RNASeq of tumor and normal tissues (Table 18, FIG. 2); design: species or system human; key: very highly over-expressed in tumors compared to a panel of normal tissues (+++); highly over-expressed in tumors compared to a panel of normal tissues (++); over-expressed in tumors compared to a panel of normal tissues (+); details: source gene of peptide; for Expression score OSCAR: esophageal cancer incl. gastric-esophageal junction (N = 11) vs panel of normal tissues; for Expression score GB: glioblastoma (N = 24) vs panel of normal tissues; for Expression score NHL: non-Hodgkin lymphoma (N = 10) vs panel of normal tissues; for Expression score NSCLC: non-small cell lung cancer (N = 11) vs panel of normal tissues; for Expression score UBC: urinary bladder cancer (N = 10) vs panel of normal tissues; for Expression score GBC_CCC: gallbladder adenocarcinoma and cholangiocarcinoma (N = 3) vs panel of normal tissues; for Expression score OC: ovarian cancer (N = 12) vs panel of normal tissues
[3] = cutoff more than 2-fold above highest 75% percentile of normal tissue samples

Row | Substance | Presentation score GB (HLA-A*02; HLA-A*02 peptides) | Presentation score NSCLC (HLA-A*02; HLA-A*02 peptides) | Peptide Presentation on cancer entities (HLA-A*02) | Target coverage: over-expression category of source gene, ESCA (source genes (mRNA) [1]; [3]) | Target coverage: over-expression category of source gene, GBM (source genes (mRNA) [1]; [3]) | Target coverage: over-expression category of source gene, LGG (source genes (mRNA) [1]; [3]) | Target coverage: over-expression category of source gene, LUAD (source genes (mRNA) [1]; [3]) | Target coverage: over-expression category of source gene, LUSC (source genes (mRNA) [1]; [3]) | Target coverage: over-expression category of source gene, SKCM (source genes (mRNA) [1]; [3]) | Expression score OSCAR (source genes (mRNA) [2]) | Expression score GB (source genes (mRNA) [2]) | Expression score NHL (source genes (mRNA) [2]) | Expression score NSCLC (source genes (mRNA) [2]) | Expression score UBC (source genes (mRNA) [2]) | Target coverage: over-expression category of source gene, BLCA (source genes (mRNA) [1]; [3]) | Target coverage: over-expression category of source gene, READ (source genes (mRNA) [1]; [3]) | Target coverage: over-expression category of source gene, COAD (source genes (mRNA) [1]; [3]) | Target coverage: over-expression category of source gene, STAD (source genes (mRNA) [1]; [3]) | Target coverage: over-expression category of source gene, UCEC (source genes (mRNA) [1]; [3]) | Expression score GBC_CCC (source genes (mRNA) [2]) | further results
1 | 59: peptide found in TNC (gene looked up) (KLLDPQEFTL; listed as Homo sapiens) [compound 59] | ++++ | ++++ | GB, NSCLC | B (>= 20% of tumors above the cutoff, but <50%) | A (>=50% of tumors above the cutoff) | B (>= 20% of tumors above the cutoff, but <50%) | C (>=5% of tumors above the cutoff, but <20%) | C (>=5% of tumors above the cutoff, but <20%) | B (>= 20% of tumors above the cutoff, but <50%) | +++ | +++ | + | +++ | + |  |  |  |  |  |  | 
2 | 61: peptide found in MSH2 (gene looked up) (AIVKEIVNI; listed as Homo sapiens) [compound 61] |  | ++++ | GC, NSCLC, OSCAR | B (>= 20% of tumors above the cutoff, but <50%) | B (>= 20% of tumors above the cutoff, but <50%) | C (>=5% of tumors above the cutoff, but <20%) | C (>=5% of tumors above the cutoff, but <20%) | B (>= 20% of tumors above the cutoff, but <50%) | B (>= 20% of tumors above the cutoff, but <50%) | + | + | + | + |  | B (>= 20% of tumors above the cutoff, but <50%) | B (>= 20% of tumors above the cutoff, but <50%) | B (>= 20% of tumors above the cutoff, but <50%) | C (>=5% of tumors above the cutoff, but <20%) | B (>= 20% of tumors above the cutoff, but <50%) | + | Presentation score OSCAR (HLA-A*02; HLA-A*02 peptides, esophageal cancer, including cancer of the gastric-esophageal junction (N = 17) vs panel of normal tissues (N = 262)): ++++; Presentation score GC (HLA-A*02; HLA-A*02 peptides, gastric cancer (N = 29) vs panel of normal tissues (N = 262)): ++++; Target coverage: over-expression category of source gene, LAML (source genes (mRNA) [1]; Acute Myeloid Leukemia (N = 173), cutoff more than 2-fold above highest 75% percentile of normal tissue samples): B (>= 20% of tumors above the cutoff, but <50%); Target coverage: over-expression category of source gene, BRCA (source genes (mRNA) [1]; Breast cancer (N = 1104), cutoff more than 2-fold above highest 75% percentile of high and medium risk normal tissue samples): B (>= 20% of tumors above the cutoff, but <50%); Target coverage: over-expression category of source gene, DLBC (source genes (mRNA) [1]; Lymphoid neoplasm diffuse large B-cell lymphoma (N = 48), cutoff more than 2-fold above highest 75% percentile of normal tissue samples): B (>= 20% of tumors above the cutoff, but <50%); Target coverage: over-expression category of source gene, OV (source genes (mRNA) [1]; Ovarian serous cystadenocarcinoma (N = 309), cutoff more than 2-fold above highest 75% percentile of normal tissue samples): A (>=50% of tumors above the cutoff); Expression score BRCA (source genes (mRNA) [2]; BRCA tumors vs panel of normal tissues): +; Expression score OC (source genes (mRNA) [2]): ++; Expression score SCLC (source genes (mRNA) [2]; small cell lung cancer (N = 10) vs panel of normal tissues): +++; Expression score UEC (source genes (mRNA) [2]; uterine cancer (N = 10) vs panel of normal tissues): +
3 | 62: peptide found in MET (gene looked up) (ALNPELVQA; listed as Homo sapiens) [compound 62] | ++++ | ++++ | GB, NSCLC, RCC | A (>=50% of tumors above the cutoff) |  |  | A (>=50% of tumors above the cutoff) | B (>= 20% of tumors above the cutoff, but <50%) | B (>= 20% of tumors above the cutoff, but <50%) |  | ++ |  | +++ | + | C (>=5% of tumors above the cutoff, but <20%) | A (>=50% of tumors above the cutoff) | A (>=50% of tumors above the cutoff) | B (>= 20% of tumors above the cutoff, but <50%) | C (>=5% of tumors above the cutoff, but <20%) | ++ | Presentation score RCC (HLA-A*02; HLA-A*02 peptides, renal cell carcinoma (N = 20) vs panel of normal tissues (N = 262)): ++++; Target coverage: over-expression category of source gene, CHOL (source genes (mRNA) [1]; Cholangiocarcinoma (N = 36), cutoff more than 2-fold above highest 75% percentile of normal tissue samples): B (>= 20% of tumors above the cutoff, but <50%); Target coverage: over-expression category of source gene, KIRC (source genes (mRNA) [1]; Clear cell kidney carcinoma (N = 534), cutoff more than 2-fold above highest 75% percentile of normal tissue samples): A (>=50% of tumors above the cutoff); Target coverage: over-expression category of source gene, KICH (source genes (mRNA) [1]; Kidney chromophobe (N = 66), cutoff more than 2-fold above highest 75% percentile of normal tissue samples): A (>=50% of tumors above the cutoff); Target coverage: over-expression category of source gene, LIHC (source genes (mRNA) [1]; Liver hepatocellular carcinoma (N = 374), cutoff more than 2-fold above highest 75% percentile of normal tissue samples): B (>= 20% of tumors above the cutoff, but <50%); Target coverage: over-expression category of source gene, PAAD (source genes (mRNA) [1]; Pancreatic ductal adenocarcinoma (N = 179), cutoff more than 2-fold above highest 75% percentile of normal tissue samples): B (>= 20% of tumors above the cutoff, but <50%); Target coverage: over-expression category of source gene, KIRP (source genes (mRNA) [1]; Papillary kidney carcinoma (N = 291), cutoff more than 2-fold above highest 75% percentile of normal tissue samples): A (>=50% of tumors above the cutoff); Expression score CRC (source genes (mRNA) [2]; colorectal cancer (N = 20) vs panel of normal tissues): +; Expression score GC (source genes (mRNA) [2]; gastric cancer (N = 11) vs panel of normal tissues): ++; Expression score HCC (source genes (mRNA) [2]; hepatocellular carcinoma (N = 15) vs panel of normal tissues): +; Expression score OC (source genes (mRNA) [2]): +; Expression score PC (source genes (mRNA) [2]; pancreatic cancer (N = 26) vs panel of normal tissues): +; Expression score RCC (source genes (mRNA) [2]; renal cell carcinoma (N = 10) vs panel of normal tissues): +++
